Results as given in the supplement of paper PMC12067093, “Discovery and optimisation of a covalent ligand for TRIM25 and its application to targeted protein ubiquitination” (Chemical Science, 2025).
The other results are listed elsewhere or left out.

Protein sequences, listed by entry. Tags and fused reporters are not part of them. Lines headed by an entry give the natural chain unless they say otherwise; changes in a name come on top.
UniProt P25205: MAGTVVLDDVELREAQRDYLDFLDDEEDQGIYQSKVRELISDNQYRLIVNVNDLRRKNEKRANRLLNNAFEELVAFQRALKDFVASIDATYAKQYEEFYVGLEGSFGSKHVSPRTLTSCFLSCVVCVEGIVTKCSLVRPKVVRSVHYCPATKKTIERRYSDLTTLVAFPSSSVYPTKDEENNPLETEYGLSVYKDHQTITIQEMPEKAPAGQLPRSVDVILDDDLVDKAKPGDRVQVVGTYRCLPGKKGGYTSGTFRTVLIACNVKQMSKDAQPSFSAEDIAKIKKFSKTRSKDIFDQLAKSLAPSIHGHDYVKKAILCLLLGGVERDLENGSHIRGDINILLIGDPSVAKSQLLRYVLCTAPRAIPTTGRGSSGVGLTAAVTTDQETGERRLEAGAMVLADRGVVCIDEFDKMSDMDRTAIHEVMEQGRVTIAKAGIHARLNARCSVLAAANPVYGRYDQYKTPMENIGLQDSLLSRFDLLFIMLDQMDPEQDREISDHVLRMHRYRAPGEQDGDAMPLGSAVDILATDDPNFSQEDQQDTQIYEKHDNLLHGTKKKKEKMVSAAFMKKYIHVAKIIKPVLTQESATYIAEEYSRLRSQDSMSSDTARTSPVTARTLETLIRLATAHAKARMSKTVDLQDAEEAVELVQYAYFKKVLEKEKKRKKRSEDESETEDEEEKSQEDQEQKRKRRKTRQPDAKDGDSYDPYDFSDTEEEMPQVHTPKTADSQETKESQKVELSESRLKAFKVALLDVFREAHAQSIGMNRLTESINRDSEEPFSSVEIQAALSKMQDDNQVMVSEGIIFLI
UniProt P40926: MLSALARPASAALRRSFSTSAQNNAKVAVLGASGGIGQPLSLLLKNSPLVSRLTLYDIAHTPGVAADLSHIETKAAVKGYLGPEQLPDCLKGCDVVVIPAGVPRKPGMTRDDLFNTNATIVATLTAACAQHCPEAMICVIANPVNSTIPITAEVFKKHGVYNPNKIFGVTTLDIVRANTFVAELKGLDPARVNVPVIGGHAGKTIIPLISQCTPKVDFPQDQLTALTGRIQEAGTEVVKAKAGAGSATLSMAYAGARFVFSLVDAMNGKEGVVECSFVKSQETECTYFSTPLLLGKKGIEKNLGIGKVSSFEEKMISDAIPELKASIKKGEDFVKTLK
UniProt Q15648, whole entry, looked up: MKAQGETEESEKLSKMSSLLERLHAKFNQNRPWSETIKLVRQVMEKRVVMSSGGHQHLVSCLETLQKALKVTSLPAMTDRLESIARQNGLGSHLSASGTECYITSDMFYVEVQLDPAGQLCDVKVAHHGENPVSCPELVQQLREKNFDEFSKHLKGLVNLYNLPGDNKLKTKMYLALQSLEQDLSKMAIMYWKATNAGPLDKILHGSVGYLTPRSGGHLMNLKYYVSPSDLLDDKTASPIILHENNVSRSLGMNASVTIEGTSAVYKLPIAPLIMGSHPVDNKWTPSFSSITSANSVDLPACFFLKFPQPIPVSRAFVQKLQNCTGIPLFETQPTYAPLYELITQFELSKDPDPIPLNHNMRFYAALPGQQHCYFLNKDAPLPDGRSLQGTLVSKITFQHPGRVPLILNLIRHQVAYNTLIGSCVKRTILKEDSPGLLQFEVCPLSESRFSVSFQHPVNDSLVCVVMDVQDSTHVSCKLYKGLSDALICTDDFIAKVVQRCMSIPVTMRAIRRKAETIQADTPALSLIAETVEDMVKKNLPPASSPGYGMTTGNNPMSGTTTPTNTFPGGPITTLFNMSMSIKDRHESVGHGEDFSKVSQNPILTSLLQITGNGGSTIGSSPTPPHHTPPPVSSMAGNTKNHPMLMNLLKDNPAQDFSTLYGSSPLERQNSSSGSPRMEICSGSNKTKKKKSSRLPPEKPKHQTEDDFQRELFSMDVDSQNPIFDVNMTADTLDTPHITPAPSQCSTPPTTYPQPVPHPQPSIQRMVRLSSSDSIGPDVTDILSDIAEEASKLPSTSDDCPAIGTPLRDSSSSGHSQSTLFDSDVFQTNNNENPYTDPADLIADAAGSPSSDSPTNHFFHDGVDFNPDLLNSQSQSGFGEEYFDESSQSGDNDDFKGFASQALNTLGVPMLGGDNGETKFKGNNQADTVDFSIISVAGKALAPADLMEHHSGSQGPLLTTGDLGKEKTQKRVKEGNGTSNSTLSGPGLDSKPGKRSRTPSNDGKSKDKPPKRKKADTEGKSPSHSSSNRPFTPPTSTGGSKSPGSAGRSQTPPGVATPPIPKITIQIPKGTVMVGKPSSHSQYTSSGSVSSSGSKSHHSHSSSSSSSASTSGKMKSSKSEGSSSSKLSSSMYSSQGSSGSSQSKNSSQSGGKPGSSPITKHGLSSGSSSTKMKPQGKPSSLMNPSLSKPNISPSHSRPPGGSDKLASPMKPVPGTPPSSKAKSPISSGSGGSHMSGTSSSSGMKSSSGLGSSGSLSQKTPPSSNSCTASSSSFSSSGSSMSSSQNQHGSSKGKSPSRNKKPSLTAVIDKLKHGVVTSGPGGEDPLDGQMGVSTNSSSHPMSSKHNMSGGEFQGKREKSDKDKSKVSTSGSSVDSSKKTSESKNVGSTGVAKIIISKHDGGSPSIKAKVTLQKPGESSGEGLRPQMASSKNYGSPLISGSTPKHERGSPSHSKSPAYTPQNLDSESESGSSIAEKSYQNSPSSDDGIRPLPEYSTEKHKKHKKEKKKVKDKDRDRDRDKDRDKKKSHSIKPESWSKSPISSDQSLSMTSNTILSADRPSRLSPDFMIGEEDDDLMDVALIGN
UniProt P23368: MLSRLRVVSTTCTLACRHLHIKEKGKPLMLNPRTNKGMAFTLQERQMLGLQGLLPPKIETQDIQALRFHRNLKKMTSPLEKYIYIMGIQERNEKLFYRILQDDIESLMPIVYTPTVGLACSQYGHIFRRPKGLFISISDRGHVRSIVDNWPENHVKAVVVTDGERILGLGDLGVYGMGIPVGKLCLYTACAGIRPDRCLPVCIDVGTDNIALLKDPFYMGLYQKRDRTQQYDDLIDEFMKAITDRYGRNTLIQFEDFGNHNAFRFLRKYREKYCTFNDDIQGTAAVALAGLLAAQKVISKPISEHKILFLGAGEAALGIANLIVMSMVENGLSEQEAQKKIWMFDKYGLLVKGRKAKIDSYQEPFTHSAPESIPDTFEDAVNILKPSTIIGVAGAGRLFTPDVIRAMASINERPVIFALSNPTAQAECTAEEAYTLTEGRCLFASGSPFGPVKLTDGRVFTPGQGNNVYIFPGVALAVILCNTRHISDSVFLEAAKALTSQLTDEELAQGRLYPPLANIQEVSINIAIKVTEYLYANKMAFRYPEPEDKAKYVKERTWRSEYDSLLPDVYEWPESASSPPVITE
UniProt O15553: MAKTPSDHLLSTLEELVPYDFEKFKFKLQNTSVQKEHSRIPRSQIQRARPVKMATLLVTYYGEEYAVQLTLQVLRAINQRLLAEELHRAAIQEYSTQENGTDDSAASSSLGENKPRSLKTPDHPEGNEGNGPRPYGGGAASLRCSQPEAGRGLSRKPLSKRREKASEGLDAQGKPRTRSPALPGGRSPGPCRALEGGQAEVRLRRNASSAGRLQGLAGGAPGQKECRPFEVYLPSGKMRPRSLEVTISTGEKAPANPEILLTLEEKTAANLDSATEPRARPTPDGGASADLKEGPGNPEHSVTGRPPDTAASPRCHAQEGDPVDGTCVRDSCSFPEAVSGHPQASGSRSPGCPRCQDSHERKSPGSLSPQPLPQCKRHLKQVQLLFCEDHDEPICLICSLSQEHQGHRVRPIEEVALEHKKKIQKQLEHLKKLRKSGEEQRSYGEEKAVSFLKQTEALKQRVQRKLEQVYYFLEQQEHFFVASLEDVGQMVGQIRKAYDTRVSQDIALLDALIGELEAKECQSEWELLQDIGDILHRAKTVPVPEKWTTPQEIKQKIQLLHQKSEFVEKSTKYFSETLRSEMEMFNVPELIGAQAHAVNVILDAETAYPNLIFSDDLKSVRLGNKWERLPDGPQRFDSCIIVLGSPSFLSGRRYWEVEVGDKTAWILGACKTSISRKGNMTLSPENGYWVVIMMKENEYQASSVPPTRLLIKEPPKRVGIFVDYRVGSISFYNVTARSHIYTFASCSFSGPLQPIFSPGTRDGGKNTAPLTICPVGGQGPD
UniProt Q14566: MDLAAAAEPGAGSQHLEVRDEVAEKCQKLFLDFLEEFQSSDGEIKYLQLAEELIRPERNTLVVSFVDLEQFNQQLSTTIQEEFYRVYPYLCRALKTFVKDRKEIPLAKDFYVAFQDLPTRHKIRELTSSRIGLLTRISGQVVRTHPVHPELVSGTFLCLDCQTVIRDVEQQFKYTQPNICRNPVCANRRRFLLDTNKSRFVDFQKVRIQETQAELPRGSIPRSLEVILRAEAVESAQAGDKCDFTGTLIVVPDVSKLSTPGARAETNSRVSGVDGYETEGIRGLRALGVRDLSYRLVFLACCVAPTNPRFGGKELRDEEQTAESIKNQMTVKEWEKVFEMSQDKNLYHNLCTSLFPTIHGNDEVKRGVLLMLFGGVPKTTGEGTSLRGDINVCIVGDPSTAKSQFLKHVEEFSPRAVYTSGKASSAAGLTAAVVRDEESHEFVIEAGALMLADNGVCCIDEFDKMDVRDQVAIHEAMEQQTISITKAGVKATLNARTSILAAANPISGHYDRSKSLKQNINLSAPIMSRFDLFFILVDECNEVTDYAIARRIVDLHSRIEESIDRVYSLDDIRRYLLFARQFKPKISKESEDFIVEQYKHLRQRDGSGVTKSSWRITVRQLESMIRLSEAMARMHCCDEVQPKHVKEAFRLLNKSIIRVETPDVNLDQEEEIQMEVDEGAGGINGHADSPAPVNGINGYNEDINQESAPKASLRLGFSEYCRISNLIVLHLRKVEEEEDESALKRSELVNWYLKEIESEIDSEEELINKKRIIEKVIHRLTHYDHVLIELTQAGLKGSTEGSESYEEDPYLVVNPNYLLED
UniProt P49736, whole entry, looked up: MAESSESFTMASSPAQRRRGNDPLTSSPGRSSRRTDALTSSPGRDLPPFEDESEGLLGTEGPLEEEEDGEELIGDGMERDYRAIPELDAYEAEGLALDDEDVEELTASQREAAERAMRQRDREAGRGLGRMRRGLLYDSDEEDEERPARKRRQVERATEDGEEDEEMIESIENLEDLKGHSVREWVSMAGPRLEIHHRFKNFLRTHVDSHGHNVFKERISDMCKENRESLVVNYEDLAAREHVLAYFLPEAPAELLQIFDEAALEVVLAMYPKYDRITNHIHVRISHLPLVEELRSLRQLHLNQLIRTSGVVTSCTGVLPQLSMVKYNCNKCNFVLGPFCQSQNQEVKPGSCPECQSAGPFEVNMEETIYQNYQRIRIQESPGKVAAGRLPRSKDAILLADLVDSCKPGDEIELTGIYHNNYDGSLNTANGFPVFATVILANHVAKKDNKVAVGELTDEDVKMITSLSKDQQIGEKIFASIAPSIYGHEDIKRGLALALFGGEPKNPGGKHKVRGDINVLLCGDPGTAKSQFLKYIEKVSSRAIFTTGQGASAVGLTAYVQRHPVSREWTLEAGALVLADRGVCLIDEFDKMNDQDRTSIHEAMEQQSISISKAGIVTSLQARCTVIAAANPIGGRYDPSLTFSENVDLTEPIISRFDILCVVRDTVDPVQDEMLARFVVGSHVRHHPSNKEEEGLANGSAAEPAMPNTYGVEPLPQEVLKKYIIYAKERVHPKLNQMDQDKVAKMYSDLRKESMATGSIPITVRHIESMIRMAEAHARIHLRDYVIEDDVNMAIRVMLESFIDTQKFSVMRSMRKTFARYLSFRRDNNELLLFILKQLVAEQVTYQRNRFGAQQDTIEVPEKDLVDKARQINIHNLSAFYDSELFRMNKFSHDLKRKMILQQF
UniProt Q10469: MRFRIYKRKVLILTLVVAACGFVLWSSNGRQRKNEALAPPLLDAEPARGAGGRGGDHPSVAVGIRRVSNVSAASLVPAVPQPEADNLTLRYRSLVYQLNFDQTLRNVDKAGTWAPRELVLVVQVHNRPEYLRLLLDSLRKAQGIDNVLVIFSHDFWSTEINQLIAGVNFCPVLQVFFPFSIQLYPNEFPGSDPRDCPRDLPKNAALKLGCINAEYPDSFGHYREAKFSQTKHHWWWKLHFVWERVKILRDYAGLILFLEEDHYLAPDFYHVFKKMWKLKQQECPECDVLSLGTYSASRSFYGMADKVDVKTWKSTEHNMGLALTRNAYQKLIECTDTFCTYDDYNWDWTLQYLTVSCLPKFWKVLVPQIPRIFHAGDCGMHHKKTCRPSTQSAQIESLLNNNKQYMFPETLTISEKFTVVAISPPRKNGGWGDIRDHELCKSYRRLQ
UniProt Q6P2C8: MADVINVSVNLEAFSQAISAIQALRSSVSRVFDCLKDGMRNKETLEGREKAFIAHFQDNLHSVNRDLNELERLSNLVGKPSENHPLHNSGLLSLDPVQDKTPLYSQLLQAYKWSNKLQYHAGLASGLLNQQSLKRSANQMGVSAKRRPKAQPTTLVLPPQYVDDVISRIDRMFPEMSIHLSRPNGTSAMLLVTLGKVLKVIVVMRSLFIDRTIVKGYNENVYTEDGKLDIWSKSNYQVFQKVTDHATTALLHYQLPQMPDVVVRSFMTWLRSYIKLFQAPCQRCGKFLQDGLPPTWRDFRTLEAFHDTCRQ

Compound: CC1Cc2ccccc2N1C(=O)C1CCCN(C1)C(=O)CCl (mixture of isomers) [TRIM25 ligand 11 (diastereomer mixture)]
Test: probe-labelled cysteine peptide fold change vs DMSO (competition) (log2 fold change); higher = less target engagement (more negative = stronger competition)
Details: THP-1, incubation time: 4 h
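Further: competitive chemoproteomic profiling in live THP-1 cells with an iodoacetamide desthiobiotin (IA-DTB) probe, comparing probe-labelled peptide intensities in compound-treated cells against DMSO-treated controls.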

Row | Target | probe-labelled cysteine peptide fold change (10 µM) | probe-labelled cysteine peptide fold change (50 µM)
1 | MCM3_P25205_119_TLTSCFLSCVVCVEGIVTK (UniProt P25205) | 0.214 | -0.00361
2 | MED26_O95402_598_LNILPYVCLD (UniProt O95402) | 0.105 | -0.0632
3 | MCM3_P25205_119+123+126_TLTSCFLSCVVCVEGIVTK (UniProt P25205) | -0.129 | -0.473
4 | MCM4_P33991_306+309_TSQLIPEMQEAFFQCQVCAHTTR (UniProt P33991) | 0.0632 | 0.234
5 | METAP1_P53582_36+40_LGIQGSYFCSQECFK (UniProt P53582) | -0.142 | -0.0326
6 | MDN1_Q9NU22_2158_CLGEGGK (UniProt Q9NU22) | 0.105 | 0.0197
7 | MECP2_P51608_429_GGSLESDGCPKEPAK (UniProt P51608) | -0.274 | -0.613
8 | MDH2_P40926_89_GYLGPEQLPDCLK (UniProt P40926) | -0.00753 | -0.0156
9 | MED1_Q15648_443_EDSPGLLQFEVCPLSESR (UniProt Q15648) | -0.0372 | -0.211
10 | ME2_P23368_198+202_CLPVCIDVGTDNIALLK (UniProt P23368) | -0.102 | -0.0992
11 | MEFV_O15553_395_QVQLLFCEDHDEPICLICSLSQEHQGHR (UniProt O15553) | -0.11 | 0.0572
12 | MED1_Q15648_302_WTPSFSSITSANSVDLPACFFLK (UniProt Q15648) | -0.00458 | 0.123
13 | METTL5_Q9NRN9_38_LLLEQYPTRPHIAACMLYTIHNTYDDIENK (UniProt Q9NRN9) | 0.0663 | 0.0583
14 | MCM5_P33992_207_CPLDPYFIMPDK (UniProt P33992) | 0.027 | -0.00496
15 | MCM3AP_O60318_1839_STECAQEGR (UniProt O60318) | 0.242 | 0.121
16 | MDN1_Q9NU22_3690_LLGSQLLACTLSHNTLFGEAPSDLMVKPDGPYDFYQHPNVPEAR (UniProt Q9NU22) | 0.00494 | 0.105
17 | MDN1_Q9NU22_3308_MDRLDNLTCHLLK (UniProt Q9NU22) | -0.0746 | -0.191
18 | MED7_O43513_197_TEPMDADDSNNCTGQNEHQR (UniProt O43513) | 0.104 | -0.344

Row | Target | probe-labelled cysteine peptide fold change (10 µM) | probe-labelled cysteine peptide fold change (50 µM)
19 | METAP1_P53582_194_SCCTSVNEVICHGIPDR (UniProt P53582) | 0.0662 | 0.0744
20 | METTL3_Q86U44_336_YVHYEIDACMDSEAPGSK (UniProt Q86U44) | -0.032 | 0.0204
21 | MFSD2A_Q8NA29_44_KQQLSVCNK (UniProt Q8NA29) | -0.207 | -0.294
22 | MCM6_Q14566_351_NLYHNLCTSLFPTIHGNDEVK (UniProt Q14566) | 0.107 | 0.0102
23 | MCM2_P49736_661_FDILCVVRDTVDPVQDEMLAR (UniProt P49736) | -0.495 | -0.0098
24 | MBOAT7_Q96N66_310_NIDCYSTDFCVR (UniProt Q96N66) | 0.334 | 0.199
25 | MGAT2_Q10469_440_NGGWGDIRDHELCK (UniProt Q10469) | 0.00136 | 0.0381
26 | METTL5_Q9NRN9_107+110_NAEEFELTNIDMVQCDVCLLSNR (UniProt Q9NRN9) | -0.067 | -0.00432
27 | ME2_P23368_274_YCTFNDDIQGTAAVALAGLLAAQK (UniProt P23368) | 0.174 | 0.0402
28 | MCM6_Q14566_393_TTGEGTSLRGDINVCIVGDPSTAK (UniProt Q14566) | -0.118 | -0.0616
29 | MDH2_P40926_285_SQETECTYFSTPLLLGKK (UniProt P40926) | -0.328 | -0.222
30 | MED1_Q15648_424_HQVAYNTLIGSCVK (UniProt Q15648) | -0.0377 | 0.186
31 | MED27_Q6P2C8_309_TLEAFHDTCR (UniProt Q6P2C8) | 0.248 | -0.00346
32 | MCM8_Q9UJA3_411_LIVNSLCPVIFGHELVK (UniProt Q9UJA3) | -0.166 | 0.0688
33 | MDN1_Q9NU22_1105_TSLIQWLAAATGNHCVR (UniProt Q9NU22) | 0.168 | 0.0543
34 | MCM3_P25205_319_AILCLLLGGVERDLENGSHIR (UniProt P25205) | -0.129 | 0.0632
35 | MED6_O75586_45_TCNNEVVK (UniProt O75586) | -0.032 | -0.0585
